# PubChem BioAssay AID686938, Drosophila RNAi Screening Center | 2013
# Assay: 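Fly genes required for calcium entry once internal stores are emptied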 (primary screen)
# Cells: Drosophila S2R+ cells
# Reagent: long dsRNA against Drosophila genes, about 0.25 µg dsRNA per well, roughly 10,000 cells
# Duration: 5 days of knock-down before the calcium assay
# Challenge: thapsigargin (SERCA pump blocker) to empty calcium stores; entry signal taken 4 min after adding it
# Measurement: 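Duplicate raw fluo-4 intensities per well from a plate reader, at rest and four minutes after thapsigargin emptied calcium stores; entry-to-rest ratio filled for only some wells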
# Direction: calcium entry signal: higher = stronger calcium signal after store depletion; entry to resting ratio: higher = more calcium entry relative to resting level; resting calcium signal: higher = higher resting calcium signal
# Rule for the call: 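Hit if the duplicate-averaged plate z-score for entry over resting signal is under −3; wells with weak total dye signal (Fmax z < −2) or more than 5 off-targets removed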
# Meaning of the calls: active = strongly reduced calcium entry; inactive = no strong reduction
# In all, the deposit lists about 23,000 reagents; shown is an unselected part of those with a known target gene and a result. Over the whole deposit, 75 (0.33%) are marked active. 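Raw plate signals without normalisation; calls rest on plate z-scores that were not deposited; ratio present for only 364 wells.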 A plus sign joins genes that one reagent is predicted to hit. Not stated in the record: the dose of the treatment.
Gene,dsRNA,"calcium entry signal, replicate 1 (fluorescence units)","calcium entry signal, replicate 2 (fluorescence units)",entry to resting ratio,"resting calcium signal, replicate 1 (fluorescence units)","resting calcium signal, replicate 2 (fluorescence units)",call
CG32813,DRSC17948,2.76e7,3.89e7,1.9,1.47e7,1.64e7,inactive
nht (no hitter),DRSC01976,3.68e7,3.99e7,,1.59e7,1.90e7,inactive
CG31817,DRSC01537,3.85e7,3.24e7,,2.15e7,1.66e7,inactive
CG31817,DRSC01538,3.28e7,3.15e7,,1.88e7,1.57e7,inactive
CG31817,DRSC22476,3.85e7,3.50e7,,2.13e7,1.71e7,inactive
Amun,DRSC19847,3.69e7,4.38e7,,2.12e7,2.38e7,inactive
PIG-C (Phosphatidylinositol glycan anchor biosynthesis class C),DRSC08241,2.92e7,3.50e7,,1.54e7,1.68e7,inactive
Sc2,DRSC08162,5.02e7,3.52e7,,3.41e7,1.44e7,inactive
Ir94h (Ionotropic receptor 94h),DRSC15232,2.97e7,4.29e7,,1.53e7,1.89e7,inactive
Ada2a + Polr2D,DRSC16206,4.08e7,5.85e7,,5.11e7,2.59e7,inactive
Ada2a + Polr2D,DRSC21598,1.54e7,1.43e7,,9.18e6,8.59e6,inactive
Prosbeta2 (Proteasome beta2 subunit),DRSC11257,2.46e7,2.26e7,,2.23e7,1.48e7,active
Art9 (Arginine methyltransferase 9),DRSC16584,4.14e7,4.44e7,,1.93e7,7.23e7,inactive
wal (walrus),DRSC07717,2.73e7,2.95e7,,1.31e7,1.44e7,inactive
CG4480,DRSC02750,3.63e7,2.26e7,,1.61e7,1.04e7,inactive
hec (hector),DRSC19895,3.49e7,3.80e7,,1.72e7,1.79e7,inactive
beta-Spec (beta Spectrin),DRSC20311,2.99e7,2.80e7,,1.48e7,1.33e7,inactive
CG11362,DRSC04106,3.95e7,3.90e7,,2.07e7,1.79e7,inactive
CG11362,DRSC22032,3.46e7,5.64e7,,1.60e7,2.83e7,inactive
CG34225,DRSC05270,5.00e7,5.95e7,,2.48e7,2.47e7,inactive
CG6191,DRSC05938,3.26e7,3.16e7,,1.45e7,1.43e7,inactive
CG6191,DRSC23127,3.62e7,3.44e7,,1.92e7,1.74e7,inactive
CG13313,DRSC09984,3.49e7,4.36e7,,1.59e7,1.72e7,inactive
Etf-QO (Electron transfer flavoprotein-ubiquinone oxidoreductase),DRSC06111,3.16e7,3.07e7,,1.51e7,1.45e7,inactive
CG18004,DRSC06705,4.98e7,4.35e7,,2.03e7,1.77e7,inactive
RpL18 (Ribosomal protein L18),DRSC11016,9.13e6,1.85e7,,7.35e6,1.16e7,inactive
RpL18 (Ribosomal protein L18),DRSC22323,1.29e7,1.95e7,,9.58e6,1.34e7,inactive
CG17005,DRSC02556,3.02e7,4.66e7,,1.50e7,1.89e7,inactive
CG6023,DRSC19970,3.51e7,3.78e7,,1.54e7,1.66e7,inactive
Jon65Aii (Jonah 65Aii),DRSC10665,2.54e7,4.04e7,,1.19e7,1.77e7,inactive
dpr2 (defective proboscis extension response 2),DRSC02370,2.98e7,3.45e7,,1.50e7,1.51e7,inactive
dpr2 (defective proboscis extension response 2),DRSC02371,3.14e7,3.26e7,,1.52e7,1.51e7,inactive
PI31 (Proteasome inhibitor 31 kDa),DRSC07306,3.82e7,3.08e7,,1.65e7,1.44e7,inactive
Ndg (Nidogen),DRSC06223,5.19e7,4.21e7,,2.14e7,2.03e7,inactive
Proc (Proctolin),DRSC03009,2.23e7,1.99e7,,1.32e7,1.14e7,inactive
Proc (Proctolin),DRSC22998,5.09e7,4.43e7,,2.53e7,1.88e7,inactive
Ctl2 (Choline transporter-like 2),DRSC14423,3.14e7,4.44e7,,1.49e7,2.24e7,inactive
CG9775,DRSC12330,3.09e7,4.12e7,,1.49e7,2.70e7,inactive
CG9775,DRSC22667,3.47e7,2.61e7,,1.52e7,1.17e7,inactive
CG31380,DRSC15688,4.18e7,6.55e7,,1.88e7,2.66e7,inactive
Hsp70Aa + Hsp70Ab,DRSC21246,3.97e7,3.53e7,,2.20e7,1.60e7,inactive
Rich (RIC1 homolog),DRSC11607,3.33e7,4.32e7,,1.62e7,3.00e7,inactive
I-3 (Inhibitor-3),DRSC20479,3.90e7,4.65e7,,2.00e7,1.98e7,inactive
CG6576,DRSC10663,3.37e7,4.49e7,,1.62e7,2.06e7,inactive
CG6254,DRSC16002,4.10e7,5.33e7,,1.84e7,2.20e7,inactive
Lnpk (Lunapark),DRSC07254,5.82e7,3.95e7,,2.47e7,1.88e7,inactive
CG4042,DRSC11751,2.60e7,4.85e7,,1.37e7,2.13e7,inactive
AnxB11 (Annexin B11),DRSC19331,4.00e7,3.82e7,,1.77e7,1.85e7,inactive
Mnat9 (microtubule-associated Nat9),DRSC14325,3.84e7,4.27e7,2.1,1.82e7,1.96e7,inactive
Gli (Gliotactin),DRSC03332,4.68e7,3.24e7,,2.06e7,1.57e7,inactive
PGS1 (Phosphatidylglycerophosphate synthase 1),DRSC16304,3.31e7,3.92e7,,4.20e7,1.86e7,inactive
CG3294,DRSC00590,3.26e7,,,1.84e7,,inactive
CG9953,DRSC11106,3.64e7,4.33e7,,1.68e7,1.62e7,inactive
Mitf,DRSC17212,3.99e7,5.32e7,2.1,1.90e7,2.10e7,inactive
Mitf,DRSC21056,5.60e7,4.09e7,,2.26e7,1.65e7,inactive
pre-mod(mdg4)-W + pre-mod(mdg4)-Y + mod(mdg4) + 3 more,DRSC16328,1.98e7,3.05e7,,2.68e7,1.31e7,inactive
CG3640,DRSC04399,4.59e7,4.27e7,,2.22e7,2.06e7,inactive
Cenp-C (Centromeric protein-C),DRSC14371,2.13e7,2.79e7,,1.39e7,1.84e7,active

7 entries from above, reformatted.
Gene	dsRNA	calcium entry signal, replicate 1 (fluorescence units)	calcium entry signal, replicate 2 (fluorescence units)	entry to resting ratio	resting calcium signal, replicate 1 (fluorescence units)	resting calcium signal, replicate 2 (fluorescence units)	call
CG18004	DRSC06705	4.98e7	4.35e7		2.03e7	1.77e7	inactive
RpL18 (Ribosomal protein L18)	DRSC11016	9.13e6	1.85e7		7.35e6	1.16e7	inactive
RpL18 (Ribosomal protein L18)	DRSC22323	1.29e7	1.95e7		9.58e6	1.34e7	inactive
CG17005	DRSC02556	3.02e7	4.66e7		1.50e7	1.89e7	inactive
CG6023	DRSC19970	3.51e7	3.78e7		1.54e7	1.66e7	inactive
Jon65Aii (Jonah 65Aii)	DRSC10665	2.54e7	4.04e7		1.19e7	1.77e7	inactive
dpr2 (defective proboscis extension response 2)	DRSC02370	2.98e7	3.45e7		1.50e7	1.51e7	inactive
